Measurements reported in PubChem BioAssay AID485353 (National Center for Advancing Translational Sciences (NCATS), 2010).
Among all 330,000 compounds or so, about 610 (0.18%) were called active. This list was built around the results that the source calls inconclusive (neither active nor inactive); the mix of calls is not that of the screen. The call rests on the fitted dose curve. Potencies of inconclusive entries are doubtful fits and often do not repeat.
Potency means the concentration at half of the fitted maximal effect.

Assay: qHTS of Yeast-based Assay for SARS-CoV PLP; further: nearly all actives have a fitted effect of over 55% in size; on activity, positive = growth rescue: 0% is about no effect
Details: S. cerevisiae expressing SARS-CoV PLpro; Potency: growth rescue; activity, positive = growth rescue: at 32.9 µM (top of the series)
With c1ccc2c(CCNCc3ccc4c(c3)OCO4)c[nH]c2c1 the Potency was inconclusive: 20 µM [activator, single point].
In the case of CN(C)S(=O)(=O)N1CCC(n2nccc2NC(=O)CCc2ccccc2)CC1, the Potency is reported as inconclusive: 3.98 µM [activator, full curve, poor fit].
For COc1cc(CNC(=O)C2CCC(=O)N(C3CCCCCC3)C2)cc(OC)c1 (stereo not given), the “activity, positive = growth rescue” value was inactive: -1.15%.
In the case of COC(=O)Cc1c(C)nc2nc(-c3ccc(Cl)cc3)[nH]n2c1=O, the Potency is reported as inconclusive: 3.16 µM [activator, single point].
For C/C=C(\C)C(=O)N[C@@H](c1ccccc1)[C@@H](O)C(=O)O[C@H]1C[C@@]2(O)[C@@H](OC(=O)c3ccccc3)C3[C@](C)(C(=O)[C@H](O)C(=C1C)C2(C)C)[C@@H](O)C[C@H]1OC[C@@]31OC(C)=O (stereo not given in full), the Potency was inconclusive: 20 µM [activator, single point].
For CCC(C)C(=O)Nc1nccs1 (stereo not given), the Potency was active: 10 µM.
In the case of O=C(COC(=O)C1CC(O)CN1C(=O)Oc1ccccc1)c1ccc(Br)cc1 (stereo not given), the Potency is reported as inconclusive: 1.41 µM [activator, partial curve].
For Cc1ccc(NC(=O)c2ccccc2[N+](=O)[O-])nc1, the Potency was inconclusive: 22.4 µM [activator, single point].
With Oc1ccccc1-c1nnc(SCCN2CCOCC2)n1Cc1ccccc1 the Potency was inconclusive: 11.2 µM [activator, single point].
With CCC(C)NS(=O)(=O)c1ccc(NC(C)=O)cc1 (stereo not given) the Potency was inconclusive: 8.91 µM [activator, single point].
With O=C(COc1ccccc1)N[C@@H]1c2ccccc2CC[C@@H]1OCc1ccccc1 the Potency was inconclusive: 10 µM [activator, partial curve].
For CC(=O)Oc1ccc(-c2cccc(C(=O)NCCCO)c2)cc1, the Potency was inconclusive: 2.82 µM [activator, full curve, poor fit].
For CS(=O)(=O)N1CCN(C(=O)c2cc(-c3cccs3)nc3ccccc23)CC1, the Potency was inconclusive: 4.47 µM [activator, single point].
For O=C(Nc1ccc(Cc2ccncc2)cc1)C1CCC(N2C(=O)C3CC=CCC3C2=O)CC1 (stereo not given), the Potency was inconclusive: 20 µM [activator, single point].
For Cc1[nH]n(-c2ccccc2)c(=O)c1/C=N\NC(=O)C1COc2ccccc2O1 (stereo not given), the Potency was active: 10 µM.
In the case of CC(C)CCSc1nc2c(c(=O)[nH]c(=O)n2C)n1CCc1ccccc1, the Potency is reported as inconclusive: 4.47 µM [activator, single point].
For O=P(N1CCCCC1)(N1CCCCC1)C(Cl)(Cl)Cl, the Potency was inconclusive: 14.1 µM [activator, single point].
In the case of Cc1cc(C)c[n+](-c2nc3ccccc3nc2[N-]S(=O)(=O)c2cccs2)c1, the Potency is reported as active: 11.2 µM.
For NS(=O)(=O)c1ccc(CCNC(=S)Nc2ccccc2)cc1, the Potency was inconclusive: 4.47 µM [activator, single point].
With COc1cc(C)ccc1OCCOCCOc1ccccc1[N+](=O)[O-] the Potency was inconclusive: 1 µM [activator, full curve, poor fit].
For Cc1nc(N2CCCCCC2)c2ccccc2n1, the Potency was inconclusive: 17.8 µM [activator, single point].
For COc1ccc(C)cc1NC(=O)CCc1c(C)nn(-c2ccc(N3CCCCC3)nn2)c1C, the “activity, positive = growth rescue” value was inactive: -6.88%.
In the case of O=C(Nc1cccnc1Cl)c1cc2c(s1)-c1ccccc1OC2, the “activity, positive = growth rescue” value is reported as inactive: 22.1%.
With CC(C)CC(NC(N)=O)C(=O)Nc1ccc(Oc2ccccc2)cc1 (stereo not given) the “activity, positive = growth rescue” value was inactive: 2.78%.
In the case of O=C(N/N=C/c1ccc(O)c(O)c1O)/C(=C/c1ccc([N+](=O)[O-])cc1)NC(=O)c1ccccc1, the Potency is reported as active: 2.51 µM.
In the case of COc1cc(N2CCCC2)c(OC)cc1/C=C(/C#N)c1ccc(Br)cc1, the “activity, positive = growth rescue” value is reported as inactive: -2.1%.
In the case of Cc1cc(Cl)ccc1NC(=S)NCC(C)C, the Potency is reported as inconclusive: 8.91 µM [activator, partial curve].
For Cc1cc(=O)oc2c(CN3CCCCC3)c(O)c(Cl)cc12, the Potency was inconclusive: 20 µM [activator, single point].
For CCOC(=O)N1CCN(S(=O)(=O)c2ccc(C(=O)NNc3nc4cc(C)cc(C)c4s3)cc2)CC1, the Potency was active: 7.94 µM.
In the case of Cc1nc2sc3c(c2c(=N)n1N)CCCC3, the “activity, positive = growth rescue” value is reported as inactive: 0.0257%.
In the case of CCOc1ccc(C(=O)CCC(=O)NNC(=O)c2ccccc2O)cc1, the Potency is reported as inconclusive: 12.6 µM [activator, partial curve].
For COc1cccc(Nc2ccc(Nc3cccc(OC)c3)nn2)c1, the Potency was inconclusive: 2.51 µM [activator, partial curve].
With O=C(Nc1ccccc1-c1nnc(SCc2ccccc2)o1)c1ccccc1 the “activity, positive = growth rescue” value was inactive: -0.236%.
With COCCNC(=S)N/N=C(\C)c1cc2ccccc2o1 the Potency was inconclusive: 11.2 µM [activator, partial curve].
In the case of COc1cccc(CN2CCN(C(=O)C3CCC(=O)N(C4CCCC4)C3)CC2)c1 (stereo not given), the Potency is reported as inconclusive: 3.98 µM [activator, full curve].
For O=C(CN1CCN(C(=O)c2ccco2)CC1)N1CCc2[nH]c3ccccc3c2C1, the “activity, positive = growth rescue” value was inactive: 0.242%.
In the case of CC(=O)Nc1ccc(N=NN2CCOCC2)cc1, the Potency is reported as active: 11.2 µM.
With CSc1ccc(C(=S)N2CCCCCC2)cc1 the Potency was inconclusive: 22.4 µM [activator, single point].
With Nc1ccc(-c2cn3cccnc3n2)cc1 the “activity, positive = growth rescue” value was inactive: -0.217%.
In the case of COc1ccc(C(=O)C2CCCN(C(=O)CCC3=NNC(=O)CC3)C2)c(C)c1 (stereo not given), the “activity, positive = growth rescue” value is reported as inactive: -0.246%.
With CCCCc1cc2c(cc1NC(=O)CN1CCCCC1)OCCO2 the “activity, positive = growth rescue” value was inactive: -2.01%.
In the case of CCOc1ccc(NS(=O)(=O)c2ccc3c(c2)N(C(C)=O)CCS3)cc1, the Potency is reported as inconclusive: 3.98 µM [activator, single point].
With CC(=O)c1cc2c(cc1NC(=O)C1CC1)OCO2 the Potency was inconclusive: 3.55 µM [activator, full curve, poor fit].
With Cc1ccc2nc(C)cc(C(=O)Nc3nccs3)c2c1 the “activity, positive = growth rescue” value was inactive: 0.808%.
With Nc1nc(-c2ccccn2)nc(N)c1Cc1c(F)cccc1Cl the Potency was inconclusive: 10 µM [activator, single point].
In the case of Cc1cc2c(cc1S(=O)(=O)C(C)CC(=O)NCc1ccco1)OCC(=O)N2 (stereo not given), the “activity, positive = growth rescue” value is reported as inactive: 2.18%.
For CC1Cc2ccccc2N1c1nc(C2CC2)nc2c1nnn2Cc1ccccc1 (stereo not given), the Potency was inconclusive: 12.6 µM [activator, single point].
In the case of Cc1ccn2c(NCc3ccc4c(c3)OCO4)c(-c3ccc(O)cc3)nc2c1, the Potency is reported as active: 7.94 µM.
With COc1cc(O)c2c(=O)c3c(OC)c(O)ccc3oc2c1 the Potency was inconclusive: 17.8 µM [activator, single point].
In the case of CC1CCCCN1C(=O)CN1C(=O)CSc2ccc(S(=O)(=O)N3CCOCC3)cc21 (stereo not given), the Potency is reported as inconclusive: 0.398 µM [activator, full curve].
With O=C(C[n+]1ccc(C(=O)N/N=C/c2ccc(O)cc2)cc1)c1ccccc1 the “activity, positive = growth rescue” value was inactive: -9.61%.
With CCOC(=O)Cn1cnc2c(cnn2-c2ccc(OC)cc2)c1=O the Potency was inconclusive: 3.98 µM [activator, single point].
For CCN(CC(=O)N1CCN(Cc2ccccc2)CC1)S(=O)(=O)c1ccc(F)cc1, the Potency was inconclusive: 2.24 µM [activator, full curve].
In the case of COC(=O)c1ccccc1NC(=O)CSc1nc(NC(=O)c2ccccc2)c2c(C)c(C)oc2n1, the Potency is reported as inconclusive: 20 µM [activator, single point].
For Cc1ccccc1C(=O)Nc1ccccc1C(=O)N1CCC(C)CC1, the “activity, positive = growth rescue” value was inactive: -0.455%.
In the case of CCOc1ccc(-n2c(SCc3ccc(C(=O)OC)o3)nc3c(c2=O)SCC3)cc1, the Potency is reported as inconclusive: 20 µM [activator, single point].
In the case of Cc1cc(-c2csc(N)n2)c(C)n1-c1ccc(Cl)c(Cl)c1, the Potency is reported as inconclusive: 11.2 µM [activator, partial curve].
With Cc1cc(C)nc(SCCCNCc2c(F)cccc2Cl)n1 the Potency was inconclusive: 0.398 µM [activator, full curve].
For COc1cc2c(cc1OC)CN(CC(=O)Nc1cccc(C)c1)CC2, the Potency was inconclusive: 7.94 µM [activator, partial curve].
In the case of COc1ccc(C2=NN(C(=O)c3ccc(Cl)c([N+](=O)[O-])c3)C(c3ccccc3)C2)cc1 (stereo not given), the Potency is reported as inconclusive: 4.47 µM [activator, single point].
With O=C(CSc1nc2c(cnn2-c2ccc(F)cc2)c(=O)[nH]1)N1N=C(c2cccs2)CC1c1ccc(F)cc1 (stereo not given) the “activity, positive = growth rescue” value was inactive: -2.73%.
With Cn1nccc1C(=O)NC1CC(C)(C)Cc2c1cnn2-c1ccc(F)cc1 (stereo not given) the Potency was inconclusive: 20 µM [activator, single point].
With CCCOc1ccc(C(=O)NNC(=O)c2cccc(S(=O)(=O)N3CCN(C(C)=O)CC3)c2)cc1OC the “activity, positive = growth rescue” value was inactive: -1.88%.
In the case of CCOc1ccc2nc(N3CCCC(C(=O)NCCCN4CCCCC4)C3)sc2c1 (stereo not given), the Potency is reported as inconclusive: 17.8 µM [activator, single point].
With Cc1ccnc(NS(=O)(=O)c2ccc(N=CC3=C(O)CC(C)(C)CC3=O)cc2)n1 the Potency was inconclusive: 2.51 µM [activator, single point].
In the case of CC(C)Cc1nnc(NS(=O)(=O)Cc2ccccc2)s1, the Potency is reported as inconclusive: 20 µM [activator, single point].
In the case of CN(C)c1ccc(S(=O)(=O)N2CCCCC2)cc1NC(=O)C1=NN(c2ccccc2)C(=O)CC1, the Potency is reported as inconclusive: 20 µM [activator, single point].
With CCC(=O)NC(c1ccc(OC)cc1)c1c(O)ccc2ccccc12 (stereo not given) the “activity, positive = growth rescue” value was inactive: 20.7%.
With CCn1c(SCC(=O)Nc2nc(C)c(C)s2)nc2cccnc21 the Potency was inconclusive: 3.55 µM [activator, partial curve].
For COc1ccccc1NC(=S)Nc1ccccn1, the Potency was inconclusive: 2.82 µM [activator, single point].
